A short description of this data set: Flower color simulation: purified pigment in juice squeezed from rose petals (cv. Medeo). Conditions: from L*a*b* value converted from transmission spectrum. The data set is classed as physicochemical. As to the method: In order to simulate the flower color when the gene for gentian anthocyanin 5,3′-acyltransferase was introduced into roses and DEL 3G-5CafG-3′CafG was accumulated in rose petals, the color development of a purified pigment suspended in juice squeezed form rose petals (cv. Medeo) was measured. As for purified pigments, DEL 3G-5CafG-3′CafG, and as a comparative control, DEL 3G-5G, cyanidin 3,5-diglucoside (CYA 3G-5G), pelargonidin 3,5-diglucoside (PEL 3G-5G) and malvidin 3,5-diglucoside (MAL 3G-5G) were used. About 20 g of Medeo petals frozen at −80° C. for more than one hour were squeezed by a garlic squeezer for household use, and centrifuged at 1000 rpm for 1 minute to remove the debris of the petals, and the supernatant was prepared as the squeezed juice.
Twenty μl of 50 mM DMSO solution of purified pigment was added to 1 ml of the squeezed juice, and kept for 10 minutes, and the absorption and transmittance spectra at 380-780 nm were measured with a spectrophotometer UV-2500PC(SHIMADZU Corporation). The transmittance spectrum values were converted into CIE L*a*b* color system (JISZ8729). […] However, since the absorbance for 3G-5CafG-3′CafG was too high, it was diluted 4-fold prior to measurement.

In the case of `O=C(/C=C/c1ccc(O)c(O)c1)OC[C@H]1O[C@@H](Oc2cc(-c3[o+]c4cc(O)cc(O[C@@H]5O[C@H](COC(=O)/C=C/c6ccc(O)c(O)c6)[C@@H](O)[C@H](O)[C@H]5O)c4cc3O[C@@H]3O[C@H](CO)[C@@H](O)[C@H](O)[C@H]3O)cc(O)c2O)[C@H](O)[C@@H](O)[C@@H]1O` [DEL 3G-5CafG-3′CafG, gentiodelphin], the “approximate color, Royal Horticultural Society color chart (RHSCC) number” value is recorded as 89A.

The values above are taken from patent US8053634B2, “Stabilization and blueing of anthocyanin pigments using gene encoding aromatic acyltransferase capable of transferring an aromatic acyl group to the 3′-position of anthocyanin” (Suntory Holdings Limited, priority 2004, dated 2011).
